{"source": "PubChem BioAssay AID1347076", "about": "(National Center for Advancing Translational Sciences (NCATS), 2019)", "note": "The campaign covered roughly 400,000 compounds. About 13,000 (3.2%) were called active. This list was built around the results that the source calls inconclusive (neither active nor inactive); the mix of calls is not that of the screen. Calls follow the shape of the dose curve; as a rule, active = well fitted cell-killing curve with a large enough effect; inconclusive = small, poorly fitted or top-dose-only effect, or effect the other way; inactive = flat fitted curve, though single readings scatter. A potency beside an inconclusive call is a rough fit, not a confirmed value. % is scaled to controls: 0 for no effect and ±100 for the full control effect; potency is read from the fitted curve at half-maximal effect."}
{"test": "qHTS assay for MDR1-selective chemotherapeutics: Primary screen using the drug-selected MDR subline cells KB-V1; also: nearly all actives have a fitted effect of over 60% in size", "details": "KB-V1 MDR cells viability, CellTiter-Glo, 72 h; activity change, negative = cytotoxicity: at 46.1 µM (top of the series)", "method_in_brief": "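Cells of the MDR subline KB-V1 are plated, dosed with compound at multiple concentrations, and incubated 72 h at 37 degrees C; CellTiter-Glo is then added and luminescence read after 10 min.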"}
{"smiles": "O=c1[nH]c(C2CCCN(S(=O)(=O)c3ccccc3)C2)nc2c1nnn2Cc1ccc(OC(F)(F)F)cc1", "note": "(stereo unspecified)", "Potency": "inconclusive: 29.1 µM [rising, single point]"}
{"smiles": "CCN(CC)C(=O)CSc1nc2sc3c(c2c(=O)n1-c1ccc(C)cc1)CC(C)(C)SC3", "Potency": "inconclusive: 4.61 µM [rising, full curve, poor fit]"}
{"smiles": "COc1ccc(C(=O)NC(=S)Nc2ccccc2N2CCOCC2)cc1[N+](=O)[O-]", "Potency": "inconclusive: 9.2 µM [cytotoxic, partial curve]"}
{"smiles": "Cc1nc(SCc2ccc(Cl)cc2)ncc1C(=O)O", "activity change, negative = cytotoxicity": "inactive: 4.14%"}
{"smiles": "Cc1cc(C(=O)COC(=O)c2ccc[nH]c2=O)c(C)n1-c1ccccc1", "Potency": "active: 18.4 µM"}
{"smiles": "CCCCOc1ccc(S(=O)(=O)NNC(=O)C2Cc3c(ccc4ccccc34)O2)cc1", "note": "(stereo unspecified)", "activity change, negative = cytotoxicity": "inactive: 0%"}
{"smiles": "COc1ccc(NC(=O)c2ccc(CN(c3cc(Cl)ccc3C)S(=O)(=O)c3ccccc3)cc2)cc1OC", "Potency": "active: 3.66 µM"}
{"smiles": "CCCN(CCC)CCNC(=O)c1cc2c(C)nc3ccccc3c2o1", "Potency": "active: 14.1 µM"}
{"smiles": "CCCc1nnc(NC(=O)C(CC)OC(=O)c2cc(C)nc3ccccc23)s1", "note": "(stereo unspecified)", "activity change, negative = cytotoxicity": "inactive: 0.659%"}
{"smiles": "CCN(CC(=O)Nc1ccccc1C(F)(F)F)C(=O)CCOc1ccccc1C", "Potency": "inconclusive: 23.1 µM [cytotoxic, single point]"}
{"smiles": "Cc1c2cnn(CC(=O)NCCCN3CC(C)CC(C)C3)c(=O)c2c(C)n1Cc1ccc(Cl)cc1", "note": "(stereo unspecified)", "Potency": "inconclusive: 8.2 µM [rising, partial curve, poor fit]"}
{"smiles": "O=C(COc1ccc(Cl)cc1)Nc1ccc(N2CCN(C(=O)c3ccco3)CC2)cc1", "Potency": "active: 13 µM"}
{"smiles": "O=C(CSCc1c(Cl)cccc1Cl)Nc1ccc2c(c1)OCCO2", "Potency": "active: 10.3 µM"}
{"smiles": "OC(c1ccccc1)(c1ccc(F)cc1)C(c1ccccc1)N1CCOCC1", "note": "(stereo unspecified)", "activity change, negative = cytotoxicity": "inactive: -18.9%"}
{"smiles": "COc1ccccc1CN(C)C[C@H]1OCc2cnnn2CCCC(=O)N([C@H](C)CO)C[C@@H]1C", "activity change, negative = cytotoxicity": "inactive: -18.4%"}
{"smiles": "Cc1[nH]c(=O)n(C(C)C)c(=O)c1Br", "activity change, negative = cytotoxicity": "inactive: -8.3%"}
{"smiles": "Nc1nc(SCC(=O)N2CCCc3ccccc32)n(-c2ccccc2)n1", "Potency": "inconclusive: 0.731 µM [rising, full curve, poor fit]"}
{"smiles": "COCCn1c(Cc2ccccc2)nnc1SCC(=O)N1CCCC1=O", "Potency": "inconclusive: 29.1 µM [rising, single point]"}
{"smiles": "COC(=O)c1cc(OC)c(OC)cc1NC(=O)c1ccc(OC)cc1", "activity change, negative = cytotoxicity": "inactive: -15.5%"}
{"smiles": "CCOCC(=O)Nc1ccc2c(c1)N(S(=O)(=O)c1cccs1)CCC2", "activity change, negative = cytotoxicity": "inactive: -2.5%"}
{"smiles": "CC(NC(=O)COc1ccccc1)C(=O)N1CCN(c2ccc(F)cc2)CC1", "note": "(stereo unspecified)", "Potency": "active: 18.4 µM"}
